Our source for the binding values is PMC10963779.

The chains behind the UniProt entries cited, without tags or fusion partners. Where a name states a change or a piece, a line headed by the entry shows the natural chain unless it says otherwise.
UniProt P0DTC4: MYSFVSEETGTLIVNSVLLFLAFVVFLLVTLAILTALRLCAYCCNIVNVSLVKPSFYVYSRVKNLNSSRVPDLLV
UniProt O60603: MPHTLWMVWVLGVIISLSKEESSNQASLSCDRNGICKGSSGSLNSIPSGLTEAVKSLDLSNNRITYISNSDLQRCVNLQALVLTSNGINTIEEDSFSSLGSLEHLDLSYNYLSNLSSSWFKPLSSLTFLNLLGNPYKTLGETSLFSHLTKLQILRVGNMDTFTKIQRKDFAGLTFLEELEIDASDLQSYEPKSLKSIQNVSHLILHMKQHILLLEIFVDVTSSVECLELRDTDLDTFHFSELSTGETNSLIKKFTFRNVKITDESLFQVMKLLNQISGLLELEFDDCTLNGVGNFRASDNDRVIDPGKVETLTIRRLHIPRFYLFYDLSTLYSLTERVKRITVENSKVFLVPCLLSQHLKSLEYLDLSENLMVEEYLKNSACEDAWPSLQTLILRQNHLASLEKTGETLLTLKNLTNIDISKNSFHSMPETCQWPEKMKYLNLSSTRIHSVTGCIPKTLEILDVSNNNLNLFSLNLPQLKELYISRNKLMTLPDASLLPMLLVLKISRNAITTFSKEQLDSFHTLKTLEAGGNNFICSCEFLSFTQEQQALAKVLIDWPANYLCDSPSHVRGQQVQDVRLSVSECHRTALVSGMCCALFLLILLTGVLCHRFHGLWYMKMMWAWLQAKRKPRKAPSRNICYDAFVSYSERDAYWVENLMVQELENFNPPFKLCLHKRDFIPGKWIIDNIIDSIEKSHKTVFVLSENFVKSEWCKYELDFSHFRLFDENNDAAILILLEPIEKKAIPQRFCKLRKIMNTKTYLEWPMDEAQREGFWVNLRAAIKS
UniProt O00206: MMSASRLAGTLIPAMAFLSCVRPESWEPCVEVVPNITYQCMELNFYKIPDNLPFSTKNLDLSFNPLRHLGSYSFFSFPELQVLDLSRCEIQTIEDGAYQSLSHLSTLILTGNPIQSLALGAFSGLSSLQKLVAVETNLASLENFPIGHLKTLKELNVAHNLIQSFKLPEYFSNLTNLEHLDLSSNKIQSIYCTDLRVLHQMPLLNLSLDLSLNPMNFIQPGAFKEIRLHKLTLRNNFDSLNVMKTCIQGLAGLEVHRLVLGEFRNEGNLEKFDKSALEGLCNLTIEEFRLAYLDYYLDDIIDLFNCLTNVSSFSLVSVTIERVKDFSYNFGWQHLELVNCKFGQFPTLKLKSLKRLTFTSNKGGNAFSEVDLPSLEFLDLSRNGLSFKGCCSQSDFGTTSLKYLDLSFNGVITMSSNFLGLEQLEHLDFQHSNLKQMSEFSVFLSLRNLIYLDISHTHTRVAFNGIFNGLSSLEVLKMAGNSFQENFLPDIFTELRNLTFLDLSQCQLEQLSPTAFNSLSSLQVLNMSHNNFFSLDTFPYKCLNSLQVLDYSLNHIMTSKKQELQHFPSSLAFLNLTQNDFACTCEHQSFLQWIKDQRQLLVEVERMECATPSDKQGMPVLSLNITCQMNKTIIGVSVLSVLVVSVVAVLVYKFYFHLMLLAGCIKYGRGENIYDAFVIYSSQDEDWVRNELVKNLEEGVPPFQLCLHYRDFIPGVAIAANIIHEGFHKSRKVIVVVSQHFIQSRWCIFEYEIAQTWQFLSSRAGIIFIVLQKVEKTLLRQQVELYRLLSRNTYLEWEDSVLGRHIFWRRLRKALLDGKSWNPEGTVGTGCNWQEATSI
UniProt O14493: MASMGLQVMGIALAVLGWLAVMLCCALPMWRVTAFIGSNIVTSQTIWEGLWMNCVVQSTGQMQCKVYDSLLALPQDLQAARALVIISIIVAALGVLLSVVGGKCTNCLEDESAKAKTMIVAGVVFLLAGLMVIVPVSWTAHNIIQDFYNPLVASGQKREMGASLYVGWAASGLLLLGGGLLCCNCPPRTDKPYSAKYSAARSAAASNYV

No constants are given. Whether binding was seen depends on the method and setting. For part of these data: Binding seen in cells or lysates may run through a third protein. Some binding calls cover weakened binding; strength is not graded here.

B1: occludin (protein, UniProt Q16625 1-522)
chain: MSSRPLESPPPYRPDEFKPNHYAPSNDIYGGEMHVRPMLSQPAYSFYPEDEILHFYKWTSPPGVIRILSMLIIVMCIAIFACVASTLAWDRGYGTSLLGGSVGYPYGGSGFGSYGSGYGYGYGYGYGYGGYTDPRAAKGFMLAMAAFCFIAALVIFVTSVIRSEMSRTRRYYLSVIIVSAILGIMVFIATIVYIMGVNPTAQSSGSLYGSQIYALCNQFYTPAATGLYVDQYLYHYCVVDPQEAIAIVLGFMIIVAFALIIFFAVKTRRKMDRYDKSNILWDKEHIYDEQPPNVEEWVKNVSAGTQDVPSPPSDYVERVDSPMAYSSNGKVNDKRFYPESSYKSTPVPEVVQELPLTSPVDDFRQPRYSSGGNFETPSKRAPAKGRAGRSKRTEQDHYETDYTTGGESCDELEEDWIREYPPITSDQQRQLYKRNFDTGLQEYKSLQSELDEINKELSRLDKELDDYREESEEYMAAADEYNRLKQVKGSADYKSKKNHCKQLKSKLSHIKKMVGDYDRQKT

One assay addresses GST-tagged SARS-CoV-2 E protein (SARS-CoV-2) (UniProt P0DTC4). The assay can be described thus: pull-down; both purified.
Consider “His-tagged TLR2 recombinant protein (from UniProt O60603 21-588) (receptor)”, for which the binding entry was “binds”.
As to “His-tagged TLR4 recombinant protein (from UniProt O00206 24-631) (receptor)”, the binding result is on record as “binds”.

In a further assay the target is Recombinant SARS-CoV-2 E Protein (His-tagged, Novoprotein) (SARS-CoV-2) (UniProt P0DTC4). Description: co-IP; supernatant of airway epithelial cell lysate incubated with 10 μg His-tagged E protein and Anti-His Tag Magnetic Beads at 4 °C overnight; beads washed with ice-cold PBS; Western blotting; only the target purified. (In general: In western blotting, separated proteins are transferred to a membrane and probed.)
As for “Toll-like receptor 2 (endogenous) (from UniProt O60603 21-784)”, the binding entry is “binds”.
Turning to “Toll-like receptor 4 (endogenous) (from UniProt O00206 24-839)”, the binding entry is reported as “binds”.
On the same count and under the same terms, in the case of claudin-4 (from UniProt O14493 1-209) it was “binds”; in that of B1, “binds”.
